PubChem BioAssay AID652243 – Drosophila RNAi Screening Center | 2013
In all, the deposit lists about 24,000 reagents; this is a random part of those with a known target gene and a result. Over the whole deposit, 246 (1%) are marked active. 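Plates not normalised; calls are printed but the firefly/Renilla ratio behind them is not deposited; fold cut for lowering reported inconsistently.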 The raw values are shown without normalisation. Names joined by + are all predicted targets of the reagent. The record does not give: the amount of reagent.

Screen: 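Fly regulators of androgen-dependent reporter output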 (primary screen)
Cells: Drosophila S2R+ cells
Reagents: long dsRNA against Drosophila genes
Duration: 72 h (48 h, then 24 h hormone)
Challenge: synthetic androgen R1881 at 10 nM for 24 h
Read-out: 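Firefly light from an androgen-responsive reporter and Renilla control light per well, raw and unnormalised, for each of two replicates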
Direction: firefly reporter light: higher = more light from androgen-responsive reporter; Renilla control light: higher = more constitutive control signal (cell number, transfection)
Hit rule: 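Across duplicate plates, a knock-down whose log firefly/Renilla ratio shifted a set fold down or up from the GFP/LacZ control mean was a hit; the downward cut appears as both 1.5 and 3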
Meaning of the calls: active = hit: reporter lowered or raised; inactive = no hit

The opening 2 records, to show the layout:
| target | DRSC id | firefly reporter light, replicate 1 | firefly reporter light, replicate 2 | Renilla control light, replicate 1 | Renilla control light, replicate 2 | activity call |
| --- | --- | --- | --- | --- | --- | --- |
| Pex3 (GeneID 39652) | DRSC10731 | 7.83e5 | 5.64e5 | 8.68e5 | 6.67e5 | inactive |
| CG34253 + lncRNA:CR32194 | DRSC09531 | 1.66e5 | 1.98e5 | 6.79e5 | 7.16e5 | inactive |

Main list, from the first entry:
| target | DRSC id | firefly reporter light, replicate 1 | firefly reporter light, replicate 2 | Renilla control light, replicate 1 | Renilla control light, replicate 2 | activity call |
| --- | --- | --- | --- | --- | --- | --- |
| Pex3 (GeneID 39652) | DRSC10731 | 7.83e5 | 5.64e5 | 8.68e5 | 6.67e5 | inactive |
| CG34253 + lncRNA:CR32194 | DRSC09531 | 1.66e5 | 1.98e5 | 6.79e5 | 7.16e5 | inactive |
| clt (GeneID 117300) | DRSC04621 | 2.78e5 | 2.87e5 | 1.78e6 | 1.57e6 | inactive |
| CG17068 (GeneID 33024) | DRSC20545 | 66638 | 45196 | 3.07e5 | 3.94e5 | inactive |
| Alg14 (GeneID 32479) | DRSC19983 | 4.70e5 | 3.92e5 | 2.23e6 | 2.83e6 | inactive |
| CG5199 (GeneID 40265) | DRSC11770 | 2.86e5 | 1.97e5 | 2.16e6 | 2.21e6 | inactive |
| Not11 (GeneID 37839) | DRSC04204 | 2.12e5 | 2.41e5 | 1.80e6 | 1.87e6 | inactive |
| Fili (GeneID 5740472) | DRSC04132 | 1.07e5 | 1.13e5 | 1.25e6 | 1.08e6 | inactive |
| Fili (GeneID 5740472) | DRSC04445 | 2.07e5 | 2.33e5 | 1.44e6 | 1.06e6 | inactive |
| Rdh1 (GeneID 35708) | DRSC06812 | 1.21e6 | 1.12e6 | 1.75e6 | 3.56e6 | inactive |
| CrebB (GeneID 32817) | DRSC20232 | 1.02e5 | 55505 | 2.13e6 | 1.76e6 | active |
| CrebB (GeneID 32817) | DRSC23558 | 3.09e5 | 2.32e5 | 3.61e5 | 3.51e5 | inactive |
| Mal-B2 (GeneID 34598) | DRSC02417 | 6.24e5 | 6.18e5 | 3.88e6 | 2.98e6 | inactive |
| Rip11 (GeneID 32850) | DRSC20000 | 1.08e5 | 1.28e5 | 5.42e5 | 6.94e5 | inactive |
| Rip11 (GeneID 32850) | DRSC29902 | 5.11e5 | 4.19e5 | 1.25e6 | 1.20e6 | inactive |
| Adgf-E (GeneID 36627) | DRSC05973 | 43910 | 87852 | 1.19e6 | 1.19e6 | inactive |
| Adgf-E (GeneID 36627) | DRSC27287 | 5.22e5 | 5.78e5 | 8.16e5 | 9.48e5 | inactive |
| apt (GeneID 37734) | DRSC23278 | 1.26e6 | 1.16e6 | 7.98e5 | 7.58e5 | inactive |
| apt (GeneID 37734) | DRSC26181 | 4.21e5 | 5.07e5 | 6.52e5 | 6.68e5 | inactive |
| CG15233 (GeneID 35556) | DRSC04967 | 1.59e6 | 1.55e6 | 1.73e6 | 2.17e6 | inactive |
| CG30287 (GeneID 246530) | DRSC03875 | 2.00e5 | 78633 | 2.36e5 | 60307 | inactive |
| bw (GeneID 37724) | DRSC04005 | 3.36e5 | 2.65e5 | 6.53e5 | 5.75e5 | inactive |
| bw (GeneID 37724) | DRSC04677 | 4.49e5 | 7.16e5 | 1.15e6 | 1.34e6 | inactive |
| Mur2B (GeneID 31111) | DRSC18545 | 3.31e5 | 3.16e5 | 4.70e6 | 3.76e6 | inactive |
| Mur2B (GeneID 31111) | DRSC18546 | 2.71e5 | 3.01e5 | 4.15e6 | 3.93e6 | inactive |
